Reference: paper PMC5281633
No constants are given. Whether binding was seen depends on the method and setting. Binding seen in cells or lysates may run through a third protein. Some results given as binding are weak or reduced against the parent protein; the word gives no strength.

The chains behind the UniProt entries cited, without tags or fusion partners.
UniProt Q14457: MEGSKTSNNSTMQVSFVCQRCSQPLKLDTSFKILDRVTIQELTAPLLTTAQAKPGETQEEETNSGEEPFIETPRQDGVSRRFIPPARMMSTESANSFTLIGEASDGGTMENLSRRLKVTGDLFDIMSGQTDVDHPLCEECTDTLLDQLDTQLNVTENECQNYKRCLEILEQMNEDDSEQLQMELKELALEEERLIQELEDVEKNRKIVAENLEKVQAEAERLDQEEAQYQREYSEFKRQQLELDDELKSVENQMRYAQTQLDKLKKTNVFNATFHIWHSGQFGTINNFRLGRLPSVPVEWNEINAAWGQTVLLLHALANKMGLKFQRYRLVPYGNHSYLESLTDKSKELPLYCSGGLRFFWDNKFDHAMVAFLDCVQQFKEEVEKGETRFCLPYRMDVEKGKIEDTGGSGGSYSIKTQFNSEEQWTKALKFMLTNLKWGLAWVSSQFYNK
UniProt P09429: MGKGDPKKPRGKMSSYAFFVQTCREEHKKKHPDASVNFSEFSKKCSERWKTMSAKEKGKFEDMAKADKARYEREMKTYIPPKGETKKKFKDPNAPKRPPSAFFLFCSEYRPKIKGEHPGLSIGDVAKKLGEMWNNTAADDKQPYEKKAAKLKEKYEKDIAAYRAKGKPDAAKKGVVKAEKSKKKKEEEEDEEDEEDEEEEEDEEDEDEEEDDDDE

Columns and labels:
[1] = target: Beclin1 (human (endogenous in SH-SY5Y)) (UniProt Q14457); test: co-IP; lysate of SH-SY5Y cells treated with rotenone and/or transfected with GFP-HMGB1 or siRNA-HMGB1; protein A or G agarose/sepharose beads; the precipitating antibody is not given
[2] = target: Beclin1 (human (endogenous in SH-SY5Y)) (UniProt Q14457); test: co-IP; endogenous proteins in lysate of control SH-SY5Y cells (no rotenone, no transfection); protein A or G agarose/sepharose beads; the precipitating antibody is not given

Row | Substance | binding [1] | binding [2]
1 | GFP-HMGB1 (from UniProt P09429 1-215) | binds | –
2 | High mobility group box 1 (HMGB1) (from UniProt P09429 1-215) | binds | no binding (condition: control cells without rotenone)
